Here are results for three substances from PMC5314347.

Amino acid sequences for entries named in this document (tags omitted). A change or cut given only in a name is not applied to a line headed by its entry.
UniProt Q9DBL9: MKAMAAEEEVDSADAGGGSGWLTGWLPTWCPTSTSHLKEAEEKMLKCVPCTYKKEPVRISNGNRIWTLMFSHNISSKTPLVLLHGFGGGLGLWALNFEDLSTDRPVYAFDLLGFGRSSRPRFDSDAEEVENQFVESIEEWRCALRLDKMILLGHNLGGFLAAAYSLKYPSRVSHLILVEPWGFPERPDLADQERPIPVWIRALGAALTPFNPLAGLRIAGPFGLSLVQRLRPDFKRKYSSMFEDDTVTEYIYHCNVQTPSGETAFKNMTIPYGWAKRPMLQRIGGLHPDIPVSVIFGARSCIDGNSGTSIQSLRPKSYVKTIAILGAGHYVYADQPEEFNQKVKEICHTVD

Results are given in words; binding and its absence hold for the method and conditions named. Binding seen in cells or lysates may run through a third protein. Some binding calls cover weakened binding; strength is not graded here. Sequences can lack the tags named with a protein.

Assay [1] concerns the target T1, PLIN5-luciferase(C) (perilipin 5) (mouse) (UniProt Q8BVZ1).
T1 sequence: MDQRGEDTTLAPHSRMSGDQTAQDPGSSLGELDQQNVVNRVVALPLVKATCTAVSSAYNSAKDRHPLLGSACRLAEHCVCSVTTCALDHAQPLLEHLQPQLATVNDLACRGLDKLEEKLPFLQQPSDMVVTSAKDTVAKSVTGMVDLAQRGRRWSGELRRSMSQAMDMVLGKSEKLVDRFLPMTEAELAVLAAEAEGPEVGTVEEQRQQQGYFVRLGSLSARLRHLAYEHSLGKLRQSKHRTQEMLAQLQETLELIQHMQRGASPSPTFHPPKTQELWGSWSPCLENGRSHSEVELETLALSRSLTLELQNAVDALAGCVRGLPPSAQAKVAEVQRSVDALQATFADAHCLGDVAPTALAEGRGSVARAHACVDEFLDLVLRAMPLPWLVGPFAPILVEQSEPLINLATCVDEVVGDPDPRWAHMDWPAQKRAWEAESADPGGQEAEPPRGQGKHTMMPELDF
Put plainly: split reporter; protein complementation assay (PCA): protein-matched aliquots of lysates of HEK293 cells transfected with ABHD5 (or mutant)-luciferase(N) or PLIN1- or PLIN5-luciferase(C) incubated together with increasing half-log doses of ABHD5 ligand SR4995 for four hrs at room temperature; luminescence read after adding coelenterazine.

Assay [2] concerns the target T2, PLIN1-luciferase(C) (perilipin 1) (UniProt Q8CGN5).
T2 sequence: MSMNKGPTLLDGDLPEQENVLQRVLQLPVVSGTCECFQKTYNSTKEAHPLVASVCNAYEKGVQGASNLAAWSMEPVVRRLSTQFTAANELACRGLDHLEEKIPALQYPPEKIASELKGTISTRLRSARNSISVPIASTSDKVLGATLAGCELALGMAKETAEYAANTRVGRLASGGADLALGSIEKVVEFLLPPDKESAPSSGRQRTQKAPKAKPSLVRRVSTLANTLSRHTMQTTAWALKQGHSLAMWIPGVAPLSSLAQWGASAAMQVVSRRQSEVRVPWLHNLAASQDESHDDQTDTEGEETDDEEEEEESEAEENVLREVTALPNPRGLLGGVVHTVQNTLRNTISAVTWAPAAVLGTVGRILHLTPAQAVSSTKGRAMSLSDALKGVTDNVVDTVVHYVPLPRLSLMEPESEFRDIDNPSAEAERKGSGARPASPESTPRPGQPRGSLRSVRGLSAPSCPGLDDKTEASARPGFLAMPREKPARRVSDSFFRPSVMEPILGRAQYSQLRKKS
The assay is described as above.

Take “ABHD5 G328S-luciferase(N) (from UniProt Q9DBL9 1-351)”: the binding result in assay [1] and in assay [2] was “binds” throughout.

Consider “ABHD5 R299N-luciferase(N) (from UniProt Q9DBL9 1-351)”, for which the binding entry in assay [1] and in assay [2] was “binds” in each case.

Turning to “ABHD5-luciferase(N) (alpha-beta hydrolase domain-containing 5, wild type) (from UniProt Q9DBL9 1-351)”, the binding entry in assay [1] and in assay [2] was “binds” in each case.
